# In PubChem BioAssay AID540256 (National Center for Advancing Translational Sciences (NCATS), 2011):
# The campaign covered roughly 300,000 compounds. About 3,700 (1.2%) were called active. The inconclusive results got no clear call from the source; some entries with a clear call stand among them for comparison. Calls follow the shape of the full dose curve; tested in HEK293 cells. A potency beside an inconclusive call is a rough fit, not a confirmed value.
# Assay: qHTS for Inhibitors of binding or entry into cells for Lassa Virus; also: nearly all actives have a fitted effect of over 50% in size
# Conditions: Lassa virus pseudotype entry inhibition, cell reporter; series mostly up to 37.9 µM
# Potency is read from the fitted curve at half-maximal effect.
row,SMILES,Potency
1,Cc1ccc2nc(-c3ccc(NC(=O)COC(=O)c4ccco4)cc3)sc2c1,active: 2240 nM
2,CCOC(=O)c1cnc2c(OC)cccc2c1N1CCN(c2ccccc2OC)CC1,"inconclusive: 35500 nM [inhibitor, single point]"
3,O=C(Nc1ccnn1C1CCN(C(=O)Cc2ccccc2F)CC1)C1CC1,"inconclusive: 5620 nM [inhibitor, single point]"
4,Cc1ccc(/C=N/NC(=O)c2ccco2)cc1,"inconclusive: 35500 nM [inhibitor, single point]"
5,O=C(CCC1N=C2c3ccccc3N=C(SCc3ccccc3Cl)N2C1=O)NCCc1ccccc1 (centres undefined),inactive
6,O=[N+]([O-])c1ccccc1Oc1cnc2ccccc2n1,"inconclusive: 501 nM [inhibitor, full curve, poor fit]"
7,Cc1nc(Nc2ccc(Cl)c(Cl)c2)sc1C(=O)Nc1ccccc1,"inconclusive: 14600 nM [inhibitor, partial curve]"
8,COc1ccc2c(Sc3ccccc3)c(C(=O)NCC(C)c3ccccc3)[nH]c2c1 (centres undefined),inactive
9,CCCCOc1ccc(C(=O)N2CC(=O)Nc3ccc(Br)cc3C2c2ccc(F)cc2)cc1 (centres undefined),"inconclusive: 35500 nM [inhibitor, single point]"
10,O=C(Nc1cccc2c1CCCC2)c1cc([N+](=O)[O-])ccc1Cl,"inconclusive: 35500 nM [inhibitor, single point]"
11,COc1ccccc1NC(=S)NN=C(C)c1ccccn1,active: 282 nM
12,Cc1cccc(OCCn2nnc3ccccc32)c1C,inactive
13,Cc1nc2ccccc2n1CCc1nc2c3ccccc3nc(SCC(=O)Nc3cccc(C(F)(F)F)c3)n2n1,inactive
14,Cc1ccc(CN2CC(C(=O)NCC(=O)Nc3c(C)cccc3C)CC2=O)cc1 (centres undefined),"inconclusive: 708 nM [activator, partial curve, poor fit]"
15,COc1ccc(N(CC(=O)Nc2ccc3c(c2)OCCO3)S(C)(=O)=O)c(OC)c1,inactive
16,CCn1c(SCCN2CCOCC2)nc2c1c(=O)n(C)c(=O)n2C,"inconclusive: 1260 nM [inhibitor, single point]"
17,O=C(Nc1n[nH]c2nc(-c3ccco3)ccc12)C1CC1,"inconclusive: 79.1 nM [inhibitor, full curve, poor fit]"
18,O=C(Nc1ccc(F)cc1)Nc1cc(S(=O)(=O)N2CCOCC2)ccc1N1CCCC1,"inconclusive: 708 nM [activator, partial curve, poor fit]"
19,CCOC(=O)c1c(C)[nH]c(C(=O)N(C)Cc2cccc(OC)c2OC)c1C,"inconclusive: 3550 nM [inhibitor, partial curve, poor fit]"

# 5 entries from above in a different format.
row | SMILES | Potency
1 | Cc1ccc2nc(-c3ccc(NC(=O)COC(=O)c4ccco4)cc3)sc2c1 | active: 2240 nM
2 | CCOC(=O)c1cnc2c(OC)cccc2c1N1CCN(c2ccccc2OC)CC1 | inconclusive: 35500 nM [inhibitor, single point]
3 | O=C(Nc1ccnn1C1CCN(C(=O)Cc2ccccc2F)CC1)C1CC1 | inconclusive: 5620 nM [inhibitor, single point]
4 | Cc1ccc(/C=N/NC(=O)c2ccco2)cc1 | inconclusive: 35500 nM [inhibitor, single point]
5 | O=C(CCC1N=C2c3ccccc3N=C(SCc3ccccc3Cl)N2C1=O)NCCc1ccccc1 (centres undefined) | inactive
